The text below walks through data of patent US20160281093.

Protein sequences, listed by entry. Tags and fused reporters are not part of them. Residues count along the entry.
UniProt P00582, 324-928: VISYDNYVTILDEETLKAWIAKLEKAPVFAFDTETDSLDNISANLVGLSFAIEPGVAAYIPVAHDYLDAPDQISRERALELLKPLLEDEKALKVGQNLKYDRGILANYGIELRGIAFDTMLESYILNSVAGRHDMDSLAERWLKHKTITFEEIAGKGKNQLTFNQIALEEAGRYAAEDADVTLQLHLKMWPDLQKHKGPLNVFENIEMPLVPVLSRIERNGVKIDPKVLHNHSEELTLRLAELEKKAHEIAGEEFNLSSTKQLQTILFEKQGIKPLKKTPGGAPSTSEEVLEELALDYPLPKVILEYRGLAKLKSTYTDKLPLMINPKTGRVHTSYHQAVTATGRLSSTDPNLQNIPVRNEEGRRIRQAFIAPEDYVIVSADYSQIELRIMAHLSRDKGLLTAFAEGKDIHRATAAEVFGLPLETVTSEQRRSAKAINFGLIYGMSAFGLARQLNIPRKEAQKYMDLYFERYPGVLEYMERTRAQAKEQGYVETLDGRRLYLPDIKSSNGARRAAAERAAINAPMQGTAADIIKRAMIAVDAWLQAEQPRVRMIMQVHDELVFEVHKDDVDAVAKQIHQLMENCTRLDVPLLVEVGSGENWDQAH

Series [1] has as its target E. coli DNA polymerase I (Escherichia coli) (UniProt P00582). As to the kind of experiment: activity assay. As to conditions: primer extension in absence of RNA, 50% synthesis at 1.8 uM dNTPs; 10 mM MgCl2, 37 C; purified recombinant protein; protein details: New England Biolabs; label: 5'-32P primer.
In series [2] the target is Klenow DNA polymerase (large fragment of DNA pol I) (Escherichia coli) (UniProt P00582). As to the kind of experiment: activity assay. As to conditions: RNA-dependent dATP hydrolysis by TLC; 10 mM MgCl2, 50 mM NaCl, pH 7.9, 37 C; purified recombinant protein; protein details: New England Biolabs.

On to “GCGTAATACGACTCACTATAG / TGTACGTTTCGGCCTTTCGGCCTCATCAGGTTGCCTATAGTGAGTCGTATTACGC [primer 21.1/template 55.1]”, for which the “activity on this sequence” value in series [1] is “active”.

Regarding UCGACA [6-mer RNA], the “activity on this sequence” value in series [2] is recorded as “active”.
